Data from publication PMC7955166.
No constants are given. Whether binding was seen depends on the method and setting.

Protein sequences, listed by entry. Tags and fused reporters are not part of them. Lines headed by an entry give the natural chain unless they say otherwise; changes in a name come on top. Residues count along the entry.
UniProt Q9NUQ9, residues 26-324: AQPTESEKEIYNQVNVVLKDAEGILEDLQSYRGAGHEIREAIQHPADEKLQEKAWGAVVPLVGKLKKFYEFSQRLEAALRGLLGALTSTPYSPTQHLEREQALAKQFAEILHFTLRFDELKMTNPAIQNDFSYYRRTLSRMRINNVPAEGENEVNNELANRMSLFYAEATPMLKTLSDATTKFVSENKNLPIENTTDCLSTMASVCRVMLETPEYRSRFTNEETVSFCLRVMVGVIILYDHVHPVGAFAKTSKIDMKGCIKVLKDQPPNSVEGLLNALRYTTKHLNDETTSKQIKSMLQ

Target: human CYRI-BΔN (residues 26-324) of the CYRI-BΔN:Rac1Q61L fusion (human) (UniProt Q9NUQ9)
Assay: crystal structure; CYRI-BΔN-…-Rac1Q61L fusion with GppNHp and Mg2+, 3.1Å; Rac1 binds in trans to CYRI-BΔN of a symmetry mate; crystals at 279K, 8% PEG4,000, 0.1M Tris pH 8.5, 0.2M sodium acetate; both purified

human CYRI-BΔN (residues 26-324) of the CYRI-BΔN:Rac1Q61L fusion (from UniProt Q9NUQ9 26-324) (domain or fragment)
binding: no binding
